Some entries share one result that the patent states for a list of compounds.
B1: ZmCKX1-Sp2: peptide Sp2 fused to the C-terminus of the scaffold protein ZmCKX1, expressed in Pichia pastoris (protein)
chain: LAAGTPALGDDRGRPWPASLAALALDGKLRTDSNATAAASTDFGNITSALPAAVLYPSSTGDLVALLSAANSTPGWPYTIAFRGRGHSLMGQAFAPGGVVVNMASLGDAAAPPRINVSADGRYVDAGGEQVWIDVLRASLARGVAPRSWNDYLYLTVGGTLSNAGISGQAFRHGPQISNVLEMDVITGHGEMVTCSKQLNADLFDAVLGGLGQFGVITRARIAVEPAPARARWVRFVYTDFAAFSADQERLTAPRPGGGGASFGPMSYVEGSVFVNQSLATDLANTGFFTDADVARIVALAGERNATTVYSIEATLNYDNATAAAAAVDQELASVLGTLSYVEGFAFQRDVAYAAFLDRVHGEEVALNKLGLWRVPHPWLNMFVPRSRIADFDRGVFKGILQGTDIVGPLIVYPLNKSMWDDGMSAATPSEDVFYAVSLLFSSVAPNDLARLQEQNRRILRFCDLAGIQYKTYLARHTDRSDWVRHFGAAKWNRFVEMKNKYDPKRLLSPGQDIFNMLESHAWPPRAI
B2: ZmCKX1-Sp39: peptide Sp39 fused to the C-terminus of the scaffold protein ZmCKX1, expressed in Pichia pastoris (protein)
chain: LAAGTPALGDDRGRPWPASLAALALDGKLRTDSNATAAASTDFGNITSALPAAVLYPSSTGDLVALLSAANSTPGWPYTIAFRGRGHSLMGQAFAPGGVVVNMASLGDAAAPPRINVSADGRYVDAGGEQVWIDVLRASLARGVAPRSWNDYLYLTVGGTLSNAGISGQAFRHGPQISNVLEMDVITGHGEMVTCSKQLNADLFDAVLGGLGQFGVITRARIAVEPAPARARWVRFVYTDFAAFSADQERLTAPRPGGGGASFGPMSYVEGSVFVNQSLATDLANTGFFTDADVARIVALAGERNATTVYSIEATLNYDNATAAAAAVDQELASVLGTLSYVEGFAFQRDVAYAAFLDRVHGEEVALNKLGLWRVPHPWLNMFVPRSRIADFDRGVFKGILQGTDIVGPLIVYPLNKSMWDDGMSAATPSEDVFYAVSLLFSSVAPNDLARLQEQNRRILRFCDLAGIQYKTYLARHTDRSDWVRHFGAAKWNRFVEMKNKYDPKRLLSPGQDIFNYNKPSFQDHSVI

Tested on: Phakopsora pachyrhizi urediniospores
Assay: Inhibition of soybean leaf infection (rust lesion formation) by ZmCKX1-peptides
Assay type: in vivo
Conditions: day 24; 115 μM; water all
Protocol: Young, fully expanded leaves were excised from soybean plants (Williams 82) and used for assessment of ZmCKX1-peptide inhibition. Two 10-μl droplets of each ZmCKX1-peptide-urediniospore mixture or control treatment were applied to the upper surface of a single leaf. Each droplet contained 50 urediniospores mixed with either ZmCKX1-Sp2 or ZmCKX1-Sp39 at a final concentration of 115 μM. Control treatments included urediniospores in water or mixed with 115 μM ZmCKX1. Droplet treatments were replicated four times.
Inoculated leaves were incubated for 8 h before rinsing away droplets and drying as described previously. Leaves were transferred to sealed Petri dishes and incubated in a growth chamber at 22° C. and 90% RH, under a 12 h light/dark cycle. The percentage of inoculations that produced rust lesions was recorded at 3 to 4 day intervals for 27 days.

| Molecule | inoculations that produced lesions (maximum) [%] |
| --- | --- |
| B1 | ≤ 74 |
| B2 | ≤ 74 |

— patent US9051581B2, “Defense peptides against fungal infection and method of their use” (The Curators of the University of Missouri, priority 2010, dated 2015)
